Assay results as given in PMC7049960.

Biological target: T1, ATF4 bZIP TAP construct (mouse) (UniProt Q06507)
T1 sequence: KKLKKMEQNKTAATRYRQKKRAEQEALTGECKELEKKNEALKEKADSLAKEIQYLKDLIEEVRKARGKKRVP
Experiment: affinity purification with mass spectrometry; tandem affinity purification of the FLAG- and S-tagged ATF4 bZIP domain expressed in mouse TA muscle fibers in vivo (16 mice, 7 days after transfection); pooled muscle extracts, anti-FLAG magnetic beads, elution with 3X-FLAG peptide, then S-protein agarose; 50 mM HEPES pH 7.0, 150 mM NaCl, 5 mM MgCl2, 2 mM EGTA, 0.1-0.5% Triton X-100, 4 °C; LC-MS/MS; two independent experiments; empty TAP construct as control

binding | Substance
binds | MAF/c-Maf (from UniProt P54843-1 1-370)
binds | C/EBPα (from UniProt P53566-1 1-359)

These are yes or no findings as the source states them, for the method shown. Binding seen in cells or lysates may run through a third protein. A yes stands for co-enrichment or nearness to the bait. Other partners may have been found.
